Article PMC10575729
These are yes or no findings as the source states them, for the method shown. In cells and extracts the contact can be indirect. Some results given as binding are weak or reduced against the parent protein; the word gives no strength.

Sequences of proteins named here, by UniProt entry; tags and fusion partners are left off.
UniProt Q9H4Z3: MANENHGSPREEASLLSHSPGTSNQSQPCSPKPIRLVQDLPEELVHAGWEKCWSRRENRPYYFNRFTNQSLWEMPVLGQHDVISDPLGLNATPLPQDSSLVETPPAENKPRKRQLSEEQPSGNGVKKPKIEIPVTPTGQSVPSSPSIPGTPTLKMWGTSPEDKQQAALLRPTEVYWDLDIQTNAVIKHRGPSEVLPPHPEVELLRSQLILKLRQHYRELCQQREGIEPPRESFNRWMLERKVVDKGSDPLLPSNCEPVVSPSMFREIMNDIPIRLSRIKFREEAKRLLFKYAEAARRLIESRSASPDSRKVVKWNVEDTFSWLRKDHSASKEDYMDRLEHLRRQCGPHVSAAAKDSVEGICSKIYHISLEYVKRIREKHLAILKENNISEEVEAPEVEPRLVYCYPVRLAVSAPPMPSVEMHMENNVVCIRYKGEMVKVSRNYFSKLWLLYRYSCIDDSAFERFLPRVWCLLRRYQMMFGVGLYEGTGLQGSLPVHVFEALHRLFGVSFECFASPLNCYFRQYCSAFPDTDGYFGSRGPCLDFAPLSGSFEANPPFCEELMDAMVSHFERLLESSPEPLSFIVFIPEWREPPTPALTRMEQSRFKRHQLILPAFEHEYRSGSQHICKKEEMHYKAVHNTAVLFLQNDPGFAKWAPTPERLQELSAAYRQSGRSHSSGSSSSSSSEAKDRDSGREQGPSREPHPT

Key:
[1] = molecular target: Phosphorylated RNA polymerase II CTD-interacting factor 1 (PCIF1), endogenous (human (endogenous in SCC25)) (UniProt Q9H4Z3); assay: co-IP; endogenous PCIF1 and CTBP2 in SCC25 cells; IP buffer (Beyotime), 2 ug primary antibody, magnetic beads, Western blot
GST-CTBP2 = GST-CTBP2 (UniProt P56545); assay: pull-down; GST-CTBP2 or GST control incubated with lysates of SCC1 cells transfected with PCIF1-FLAG for 2 hours at 4°C, bound to GST beads; blot with anti-FLAG and anti-GST (the results call both proteins purified recombinant); only the target purified

| binding [1] | binding (GST-CTBP2) | Substance |
| --- | --- | --- |
| binds | – | C-terminal binding protein 2 (CTBP2), endogenous (from UniProt P56545 1-445) |
| – | binds | FLAG-PCIF1 (GST pull-down) (from UniProt Q9H4Z3 1-704) |
